Experimental data: patent US7141546B1 (priority 2001, dated 2006)

Experiment: general procedure: Boc solid-phase peptide synthesis; MBHA hydrochloride resin (Bachem), substitution about 0.28 mequiv/g; DIC (DIC/HOBt for Asn, Gln); BOP for lactam cyclization
Conditions: whole synthesis, HPLC and capillary zone electrophoresis (CZE), scale of the general procedure about 3 grams of resin

Row | Substance | final purity (method not given) | final HPLC purity
1 | (cyclo 32–35)D-Phe-His-Leu-Leu-Arg-Glu-Val-Leu-Glu-Nle-Ala-Arg-Ala-Glu-Gln-Leu-Ala-Gln-Gln-Ala-Glu-Ser-Asn-Lys-Lys-Leu-Nle-Glu-Ile-Ile-NH2 | about 97% | –
2 | Ac-Asp-Leu-Ser-D-Phe-His-CML-Leu-Arg-Lys-Nle-Ile-Glu-Ile-Glu-Lys-Gln-Glu-Lys-Glu-Lys-Gln-Gln-Ala-Gln-Asn-Asn-Lys(Ac)-Leu-Leu-Leu-Asp-CML-Ile-NH2 | – | greater than 98%
